Values of other authors, collected in US20070053975A1, “Ramipril formulation” (Selamine Limited, priority 2005, published 2007).

Details: cited from earlier work

**Q.** For `CN1C(=O)CN=C(c2ccccc2)c2cc(Cl)ccc21` [diazepam], which “Absorption in the presence of food” value is on record?
**A.** increased
